Two molecules from article PMC7019159 can be followed below.

Sequences of proteins named here, by UniProt entry; tags and fusion partners are left off.
UniProt Q96AC1: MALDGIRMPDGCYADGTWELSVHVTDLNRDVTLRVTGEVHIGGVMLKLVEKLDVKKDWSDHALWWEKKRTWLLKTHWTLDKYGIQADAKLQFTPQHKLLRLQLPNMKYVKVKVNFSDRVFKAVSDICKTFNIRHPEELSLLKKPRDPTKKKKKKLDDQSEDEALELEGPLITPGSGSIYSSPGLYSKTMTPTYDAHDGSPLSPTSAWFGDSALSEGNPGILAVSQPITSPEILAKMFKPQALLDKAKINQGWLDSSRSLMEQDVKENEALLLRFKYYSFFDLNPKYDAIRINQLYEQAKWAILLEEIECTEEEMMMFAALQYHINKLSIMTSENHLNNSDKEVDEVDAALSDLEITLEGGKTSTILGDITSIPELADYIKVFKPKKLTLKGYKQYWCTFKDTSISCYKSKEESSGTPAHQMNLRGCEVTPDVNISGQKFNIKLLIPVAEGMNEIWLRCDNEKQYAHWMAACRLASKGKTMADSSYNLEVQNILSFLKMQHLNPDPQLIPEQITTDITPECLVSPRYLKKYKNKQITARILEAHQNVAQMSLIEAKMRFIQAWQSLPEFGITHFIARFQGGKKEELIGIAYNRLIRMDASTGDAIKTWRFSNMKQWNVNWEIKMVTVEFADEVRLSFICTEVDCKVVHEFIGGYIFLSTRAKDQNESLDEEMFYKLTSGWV

No constants are given. Whether binding was seen depends on the method and setting. In cells and extracts the contact can be indirect. Some entries that bind do so weakly or less than the wild type. For some assays here: Where a sequence is shown, tags or fusion partners need not be part of it.

Assay [1] has as its target T1, endogenous IKKε (human (endogenous in HCT116)) (UniProt Q14164).
T1 sequence: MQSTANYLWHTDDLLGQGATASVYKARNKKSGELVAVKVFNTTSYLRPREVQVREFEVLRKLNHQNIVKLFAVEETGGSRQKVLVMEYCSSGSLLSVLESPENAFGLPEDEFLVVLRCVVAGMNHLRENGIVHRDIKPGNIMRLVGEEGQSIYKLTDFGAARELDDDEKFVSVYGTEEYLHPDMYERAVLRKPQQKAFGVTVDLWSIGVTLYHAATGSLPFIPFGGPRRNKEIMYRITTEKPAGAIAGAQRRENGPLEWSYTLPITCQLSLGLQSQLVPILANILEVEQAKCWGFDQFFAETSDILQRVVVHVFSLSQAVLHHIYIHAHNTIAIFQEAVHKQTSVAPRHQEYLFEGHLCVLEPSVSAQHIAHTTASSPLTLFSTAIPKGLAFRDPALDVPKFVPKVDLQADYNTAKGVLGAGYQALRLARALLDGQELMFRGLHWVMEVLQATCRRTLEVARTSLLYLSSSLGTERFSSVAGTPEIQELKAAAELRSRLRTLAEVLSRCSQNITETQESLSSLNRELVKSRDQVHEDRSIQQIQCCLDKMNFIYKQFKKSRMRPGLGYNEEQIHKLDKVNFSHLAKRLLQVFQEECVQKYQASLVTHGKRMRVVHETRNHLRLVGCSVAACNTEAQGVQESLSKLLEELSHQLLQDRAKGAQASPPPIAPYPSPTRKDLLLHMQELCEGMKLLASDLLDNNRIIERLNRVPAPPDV
Briefly: co-IP; endogenous proteins; IKKε immunoprecipitated from HCT116 lysates (NP-40 buffer, 4 °C overnight, protein A/G agarose) with anti-IKKε antibody or control IgG, then immunoblotted. (In general: In western blotting, separated proteins are transferred to a membrane and probed.)

The target of a further assay is FLAG-tagged kindlin-2 (UniProt Q96AC1). Kind of assay: co-IP; HCT116 cells co-transfected with FLAG-tagged kindlin-2 and GFP-tagged IKKε for 48 h; total lysates (NP-40 buffer: 20 mM Tris-HCl pH 8.0, 137 mM NaCl, 1% NP-40, 10% glycerol, 2 mM EDTA) immunoprecipitated with FLAG-conjugated M2 beads, then immunoblotted.

As for “endogenous kindlin-2 (from UniProt Q96AC1 1-680)”, the binding result in assay [1] is “binds”.

B1: GFP-tagged IKKε (enzyme, UniProt Q14164 1-716)
chain: T1 sequence
For B1, the binding entry in the assay with FLAG-tagged kindlin-2 is listed as “binds”.
